PubChem BioAssay AID743121 | NCATS, 2013
Shown is one part, drawn at random, of about 26,000 reagents tested. Over the whole deposit, 167 (0.63%) were called active. 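Calls are per gene from RSA p-values that are not deposited; an individual active-marked siRNA can sensitise only weakly.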 Reagents against one gene are numbered here. Not all columns of the deposit are shown.

- Aim: 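Genes whose silencing strengthens cell killing by camptothecin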 (primary screen)
- Cells: MDA-MB-231 cells, a human breast cancer line
- Reagents: single siRNA against human genes, 20 nM siRNA (0.8 pmol per well)
- Timing: 120 h (drug added 48 h after transfection, read 72 h later)
- Treatment: camptothecin 20 nM (about EC30) for 72 h; vehicle 0.1% DMSO in parallel plates
- Read-out: 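Cell viability by ATP luminescence (CellTiter-Glo) as % of non-targeting siRNA wells, and the log2 ratio of viability without drug over viability with camptothecin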
- Reading the numbers: log2 vehicle/camptothecin viability: higher = stronger sensitisation to camptothecin; viability with camptothecin: higher = more viable cells
- Units: viability with camptothecin in % of control
- Hit rule: 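Active genes have an RSA gene-level p-value below 0.001, computed from the ratios of their separate siRNAs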

After knock-down of TUBB3 #1 the results were log2 vehicle/camptothecin viability 0.0681; viability with camptothecin 50.5; inactive.
Against TUBB3 #2, the entry reads log2 vehicle/camptothecin viability -0.443; viability with camptothecin 25.9; inactive.
Depletion of TUBB3 #3 came out at: log2 vehicle/camptothecin viability 0.0944; viability with camptothecin 67.8; inactive.
Silencing of SLC10A3 #1 resulted in: log2 vehicle/camptothecin viability -0.37; viability with camptothecin 88.5; inactive.
Depletion of SLC10A3 #2 gave: log2 vehicle/camptothecin viability -0.531; viability with camptothecin 52.8; inactive.
Silencing of SLC10A3 #3 resulted in: log2 vehicle/camptothecin viability 0.0276; viability with camptothecin 58.8; inactive.
Depletion of OR4D1 #1 gave: log2 vehicle/camptothecin viability -0.141; viability with camptothecin 69.7; inactive.
Knock-down of OR4D1 #2 gave: log2 vehicle/camptothecin viability -0.629; viability with camptothecin 97.1; inactive.
With knock-down of OR4D1 #3 the results were log2 vehicle/camptothecin viability -0.377; viability with camptothecin 75.3; inactive.
Depletion of OR4D1 #4 resulted in: log2 vehicle/camptothecin viability -0.053; viability with camptothecin 56.3; inactive.
Knock-down of PDCD4 #1 gave: log2 vehicle/camptothecin viability -0.129; viability with camptothecin 130; inactive.
After knock-down of PDCD4 #2, the record shows log2 vehicle/camptothecin viability -0.329; viability with camptothecin 75.8; inactive.
PDCD4 #3 scored log2 vehicle/camptothecin viability -0.188; viability with camptothecin 108; inactive.
After knock-down of PDCD4 #4, the record shows log2 vehicle/camptothecin viability 0.027; viability with camptothecin 66.7; inactive.
